The record followed here is PubChem BioAssay AID662 (National Center for Advancing Translational Sciences (NCATS), 2007).

The other results are listed elsewhere or left out. Shown are side measurements of this screen, not its main read-out; they come without a call. Compounds called inactive in the main read-out are mostly missing here. The note in brackets gives the kind of curve behind each potency; many fits are weak.

The nature of this assay: Cell signaling CRE-BLA (Fsk stim). The following applies: CHO CRE-bla reporter (cAMP response element driving beta-lactamase), forskolin EC10, beta-lactamase ratio; measured here: 460 nm blue channel. The gist of the method: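 The 460nm/530nm emission ratio after CCF4 loading defined %Activity, from which AC50 values were obtained. CRE-bla CHO cells received compound dilution series together with an EC10 level of NKH 477 for 3 hours at 37 degrees Celsius.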
In the case of `CC1CN=C(Nc2cccc3ccccc23)S1` (stereo not drawn), the AC50 (in general, the concentration giving half of the maximal activity seen) was 0.1 µM [falling, partial curve].
`C/C(O)=C(/C#N)C(=O)Nc1cc(Br)ccc1Br`: the AC50 was 10 µM [falling, partial curve, poor fit].
Then `O=C(Oc1ccccc1)N1CCC[C@@]2(CCN(Cc3cc(C(F)(F)F)cc(C(F)(F)F)c3)C2)C1`, with 10 µM [rising, partial curve]; and `N#CC1=C(N)Oc2c(c(=O)oc3ccccc23)C1c1ccc(OC(=O)N2CCOCC2)cc1` (stereo not drawn), with 5.01 µM [rising, partial curve].
With `CCC(C)NC(=O)c1c(N)n(Cc2ccc3c(c2)OCO3)c2nc3ccccc3nc12` (stereo not drawn), the half-maximal activity concentration (AC50) was 10 µM [rising, partial curve].
Then `CC(C)OCCCNC(=O)c1c(N)n(CC2CCCO2)c2nc3ccccc3nc12` (stereo not drawn), with 12.6 µM [rising, partial curve]; and `CCCC1(CCC)C(=O)NC(=NCc2ccccc2)NC1=O`, with 25.1 µM [falling, single point].
Then `C=CCn1c(O)c(C(CC)=NCc2cc(OC)cc(OC)c2)c(=O)[nH]c1=O`, with 5.01 µM [rising, partial curve].
The value for `CC1=NCCc2c1[nH]c1cc(O)ccc21` was 10 µM [rising, partial curve].
With `COC(=O)C(O)(c1cn(C)c2ccccc12)C(F)(F)F` (stereo not drawn), the AC50 was 15.8 µM [falling, partial curve, poor fit].
The value for `CN(C(=O)Cc1ccc(Cl)c(Cl)c1)[C@H](CN1CCCC1)c1ccccc1` was 7.94 µM [rising, partial curve, poor fit].
In the case of `CCCN(CCC)[C@@H]1CCc2ccc(O)cc2C1`, the AC50 was 0.1 µM [rising, full curve, poor fit].
Turning to `CCCCn1c(O)c(C(CC)=NCc2ccc3c(c2)OCO3)c(=O)[nH]c1=O`, the AC50 is 3.16 µM [rising, partial curve].
Then `COc1ccc(-c2nc(CS(=O)CC(=O)N3CCC4(CC3)OCCO4)c(C)o2)cc1` (stereo not drawn), with 0.02 µM [falling, full curve]; and `O=C(CCCCCn1c(=S)[nH]c2ccccc2c1=O)N1CCC2(CC1)OCCO2`, with 0.1 µM [rising, full curve].
The value for `O=C(Cn1ncc2c3ccccc3n(Cc3cccc(Cl)c3)c2c1=O)N1CCC2(CC1)OCCO2` was 0.1 µM [falling, partial curve].
Then `O=C1CC(N2CC=C(c3ccccc3)CC2)C(=O)N1c1ccc(F)cc1` (stereo not drawn), with 12.6 µM [falling, single point]; and `CC1CN=C(NCc2ccncc2)S1` (stereo not drawn), with 5.01 µM [falling, single point].
Consider `CCOC(=O)c1ccc(NC(=O)C2C3C=CC(O3)C2C(=O)O)cc1` (stereo not drawn), for which the concentration at half-maximal activity (AC50) is 0.316 µM [rising, partial curve].
For `CCOC(=O)c1ccc(N2C(=O)CC(N3CC=C(c4ccc(F)cc4)CC3)C2=O)cc1` (stereo not drawn), the AC50 was 12.6 µM [falling, single point].
The value for `CC(=NCCN1CCOCC1)c1c(O)n(C2CCCCC2)c(=O)[nH]c1=O` was 5.01 µM [falling, single point].
The value for `CN(CCc1ccc(Cl)c(Cl)c1)[C@H]1CCCC[C@H]1N1CCCC1` was 10 µM [falling, partial curve, poor fit]; that for `COP(=S)(OC)SCn1nnc2ccccc2c1=O` was 10 µM [falling, partial curve].
Then `CC12CCCCC1=NC(c1ccc(Br)cc1)N2O` (stereo not drawn), with 0.794 µM [falling, partial curve, poor fit].
Take `CCC(=NCC1CCCO1)c1c(O)n(Cc2ccccc2)c(=O)[nH]c1=O` (stereo not drawn): the AC50 was 15.8 µM [rising, partial curve].
Then `Cc1nc2ccccc2n1C1CCN(Cc2nnnn2CCc2ccccc2)CC1`, with 10 µM [rising, partial curve]; and `COc1ccc(CC2c3cc(OC)c(OC)cc3CCN2C)cc1OC` (stereo not drawn), with 25.1 µM [rising, single point]; and `CC(C)CCOC(=O)c1c(N)n(CC2CCCO2)c2nc3ccccc3nc12` (stereo not drawn), with 15.8 µM [rising, single point].
Then `CCC/C=C(\CCC)C(NP(=O)(c1ccccc1)c1ccccc1)c1ccccc1` (stereo not drawn), with 25.1 µM [falling, single point]; and `COc1ccc(CCn2c(O)c(C=NC3CC3)c(=O)[nH]c2=O)cc1OC`, with 10 µM [rising, single point].
The value for `CCC12CN3CCN(CC(C3)/C1=N\O)C2` was 0.0631 µM [rising, full curve]; that for `CCOC(=O)c1c(N)n(CCCOC(=O)c2ccco2)c2nc3ccccc3nc12` was 12.6 µM [rising, partial curve].
As to `CCn1c(=O)cc(SCC(=O)N2CCC3(CC2)OCCO3)c2ccccc21`, the AC50 is 10 µM [rising, partial curve, poor fit].
The value for `Cc1ccc(Cn2nnnc2CN2CCC(n3nnc4cc(C)ccc43)CC2)cc1` was 10 µM [rising, single point]; that for `CCC(=O)OC1(c2cccc(C)c2)CC(C)N(C)CC1C` (stereo not drawn) was 0.1 µM [falling, partial curve, poor fit]; that for `COC(=O)/C=C\C(=O)N[C@@H]1CC[C@@]2(O)[C@H]3Cc4ccc(O)c5c4[C@@]2(CCN3CC2CC2)[C@@H]1O5` was 20 µM [falling, partial curve, poor fit].
The value for `Nc1ccncc1` was 25.1 µM [falling, partial curve, poor fit].
In the case of `Cc1ccc(CS(=O)(=O)Cc2ccc(C(=O)N3CCC4(CC3)OCCO4)o2)cc1`, the AC50 is 0.00316 µM [falling, partial curve, poor fit].
Then `CCCCn1c(O)c(C=NCCCn2ccnc2)c(=O)[nH]c1=O`, with 10 µM [falling, partial curve].
The value for `NS(=O)(=O)c1ccc(N=Cc2c(O)n(C3CCCCC3)c(=O)n(C3CCCCC3)c2=O)cc1` was 10 µM [falling, single point]; that for `Cl.Cl.Cl.Cl.Cl.Cl.N.N.N.N.NNNNN.NNNNN.O.O.[Ru].[Ru].[Ru]` was 31.6 µM [falling, single point]; that for `COC1=C(C)C(=O)c2c(c(COC(N)=O)c3n2C[C@@H]2[C@@H]3N2C)C1=O` (stereo partly drawn) was 0.1 µM [rising, full curve].
With `N[C@H](C(=O)O)c1cc(=O)[nH]o1`, the concentration at half-maximal activity (AC50) is 31.6 µM [falling, single point].
Then `Cn1c(O)c(C(=NCCN2CCCCC2)c2ccccc2Cl)c(=O)n(C)c1=O`, with 6.31 µM [rising, partial curve].
Then `Cc1[nH]c2ccc(O)cc2c1CCN`, with 25.1 µM [falling, single point]; and `CC(C)CCNC(=O)c1c(N)n(CC2CCCO2)c2nc3ccccc3nc12` (stereo not drawn), with 2.51 µM [falling, full curve].
The value for `Clc1ccc2c(N3CCNCC3)ccnc2c1` was 5.01 µM [falling, full curve]; that for `O=C(O)CCCc1ccc(N(CCCl)CCCl)cc1` was 25.1 µM [rising, partial curve].
Regarding `CN1C(=O)CCS(=O)(=O)[C@H]1c1ccc(Cl)cc1`, the AC50 was 15.8 µM [falling, single point].
The value for `Cn1c(O)c(/C=N/c2ccccn2)c(=O)n(C)c1=O` was 0.398 µM [falling, partial curve].
For the molecule `ClC1=C(Cl)C2(Cl)C3C(Cl)C=CC3C1(Cl)C2(Cl)Cl` (stereo not drawn), the AC50 is 3.98 µM [rising, partial curve].
The value for `CN1CCC(c2c[nH]c3ccc(O)cc23)CC1` was 20 µM [falling, partial curve, poor fit]; that for `CC(C)CC(NC(=O)C1CCCCC1)C(=O)N1CCC2(CC1)OCCO2` (stereo not drawn) was 2 µM [falling, partial curve]; that for `O=C(Cc1ccccc1)N1CCN(Cc2c[nH]c3ccccc23)CC1` was 0.794 µM [falling, partial curve, poor fit].
The value for `C=CC(=O)OCCO` was 20 µM [falling, partial curve, poor fit].
The value for `O=P(O)(O)Cc1ccccc1OP(=O)(c1ccccc1)c1ccccc1` was 25.1 µM [rising, single point]; that for `Oc1cc(Cl)c(Cl)c(Cl)c1Cl` was 25.1 µM [falling, partial curve]; that for `Cn1c(O)c(C=NCCOc2ccc(Cl)cc2)c(=O)n(C)c1=O` was 10 µM [rising, partial curve].
`Nc1ccc([N+](=O)[O-])cc1N`: the AC50 is 20 µM [falling, partial curve, poor fit].
Then `CCOC(=O)C(O)(c1ccc(NC(=O)c2ccco2)c(OC)c1)C(F)(F)F` (stereo not drawn), with 12.6 µM [rising, partial curve]; and `c1cncc(CNC2=NCCC2)c1`, with 3.98 µM [falling, partial curve]; and `Cc1[nH]c2ccccc2c1/C=N/O`, with 6.31 µM [falling, partial curve].
Then `CCC(=NCc1ccc(F)cc1)c1c(O)n(C)c(=O)n(C)c1=O`, with 10 µM [rising, single point]; and `CP(C)(=O)CCC(=O)O`, with 0.00316 µM [falling, full curve, poor fit].
Then `CC(C)C[C@H]1C(=O)N2CCC[C@@H]2[C@@]2(O)O[C@](NC(=O)[C@@H]3C=C4c5cccc6[nH]cc(c56)C[C@@H]4N(C)C3)(C(C)C)C(=O)N12`, with 3.98 µM [rising, partial curve]; and `C[C@]1(C(=O)O)[C@@H]2CC[C@@H](O2)[C@@]1(C)C(=O)O`, with 0.398 µM [rising, full curve, poor fit]; and `c1ccc2c(CCNC3=NCCC3)c[nH]c2c1`, with 3.98 µM [falling, partial curve, poor fit].
With `CN1CCN(C(=O)O[C@@H]2c3nccnc3C(=O)N2c2ccc(Cl)cn2)CC1`, the AC50 is 10 µM [rising, partial curve, poor fit].
